The results in this text go back to article PMC7408781.

Chains of the proteins cited; added tags and fusions are not shown. Residues count along the entry.
UniProt P08581, residues 25-1390: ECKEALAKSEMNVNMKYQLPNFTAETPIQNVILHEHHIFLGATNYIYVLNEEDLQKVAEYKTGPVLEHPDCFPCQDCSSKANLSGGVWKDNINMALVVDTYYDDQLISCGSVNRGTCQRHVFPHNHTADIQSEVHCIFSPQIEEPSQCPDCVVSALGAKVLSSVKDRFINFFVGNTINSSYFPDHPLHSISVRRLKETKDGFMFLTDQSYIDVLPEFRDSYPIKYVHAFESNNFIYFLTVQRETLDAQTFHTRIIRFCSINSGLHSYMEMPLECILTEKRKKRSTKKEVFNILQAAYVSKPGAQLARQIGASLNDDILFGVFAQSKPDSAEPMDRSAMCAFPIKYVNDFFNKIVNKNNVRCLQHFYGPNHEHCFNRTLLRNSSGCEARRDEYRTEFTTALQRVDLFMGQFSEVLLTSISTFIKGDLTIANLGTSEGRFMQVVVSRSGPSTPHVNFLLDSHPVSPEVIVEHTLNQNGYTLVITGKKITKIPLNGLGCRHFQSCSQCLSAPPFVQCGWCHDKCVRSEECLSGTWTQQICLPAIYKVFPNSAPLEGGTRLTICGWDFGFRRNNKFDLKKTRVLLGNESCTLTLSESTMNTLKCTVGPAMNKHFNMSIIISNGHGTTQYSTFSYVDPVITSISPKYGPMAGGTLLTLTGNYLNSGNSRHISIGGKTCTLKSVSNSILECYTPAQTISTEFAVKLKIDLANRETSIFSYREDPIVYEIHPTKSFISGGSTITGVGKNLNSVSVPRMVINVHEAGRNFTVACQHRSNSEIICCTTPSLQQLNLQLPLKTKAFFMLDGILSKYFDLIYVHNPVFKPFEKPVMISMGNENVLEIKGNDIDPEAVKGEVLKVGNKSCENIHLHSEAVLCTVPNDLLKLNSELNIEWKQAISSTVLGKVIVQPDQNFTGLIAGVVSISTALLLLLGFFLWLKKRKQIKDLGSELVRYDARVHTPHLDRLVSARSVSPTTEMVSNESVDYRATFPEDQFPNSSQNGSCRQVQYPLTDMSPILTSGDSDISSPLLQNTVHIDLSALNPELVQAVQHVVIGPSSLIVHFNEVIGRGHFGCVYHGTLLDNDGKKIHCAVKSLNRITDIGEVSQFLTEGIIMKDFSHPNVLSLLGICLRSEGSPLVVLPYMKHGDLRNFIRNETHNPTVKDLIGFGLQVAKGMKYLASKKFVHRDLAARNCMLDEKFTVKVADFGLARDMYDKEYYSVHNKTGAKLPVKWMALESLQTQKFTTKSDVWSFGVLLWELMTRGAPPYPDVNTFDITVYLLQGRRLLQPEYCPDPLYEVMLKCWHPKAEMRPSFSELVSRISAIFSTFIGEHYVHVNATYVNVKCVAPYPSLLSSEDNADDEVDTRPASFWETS

Test [1] has as its target T1, Serum amyloid A-like 1 (SAAL1) (human (endogenous in SK-Hep1)) (UniProt Q96ER3).
T1 sequence: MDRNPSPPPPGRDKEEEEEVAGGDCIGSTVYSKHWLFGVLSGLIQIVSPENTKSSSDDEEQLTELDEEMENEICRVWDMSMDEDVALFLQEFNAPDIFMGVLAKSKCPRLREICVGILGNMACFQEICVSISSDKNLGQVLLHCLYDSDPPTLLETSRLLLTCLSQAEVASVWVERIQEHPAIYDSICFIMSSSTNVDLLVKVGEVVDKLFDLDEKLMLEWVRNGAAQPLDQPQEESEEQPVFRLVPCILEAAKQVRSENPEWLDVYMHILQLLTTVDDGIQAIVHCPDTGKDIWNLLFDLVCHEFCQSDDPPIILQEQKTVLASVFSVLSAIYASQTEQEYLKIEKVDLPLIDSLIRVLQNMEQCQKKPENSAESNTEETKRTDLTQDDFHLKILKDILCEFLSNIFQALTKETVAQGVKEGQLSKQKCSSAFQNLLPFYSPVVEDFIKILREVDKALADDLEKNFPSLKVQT
Put plainly: co-IP; SK-Hep1 cells not treated with HGF; lysate in co-IP buffer (0.5% NP-40, 25 mM Tris-HCl, 150 mM NaCl, 2 mM EDTA); IP with anti-SAAL1 or anti-Met antibody and protein G magnetic beads; Western blot. For orientation: A western blot detects proteins with antibodies after separation by electrophoresis.

Test [2] has as its target T1, Serum amyloid A-like 1 (SAAL1) (human (endogenous in SK-Hep1)). Put plainly: co-IP; SK-Hep1 cells serum-starved 16 h, stimulated with 50 ng/mL HGF for one hour; lysate in co-IP buffer (0.5% NP-40, 25 mM Tris-HCl, 150 mM NaCl, 2 mM EDTA); IP with anti-SAAL1 or anti-Met antibody and protein G magnetic beads; Western blot.
Test [3] has as its target Met (human (endogenous in SK-Hep1)) (UniProt P08581). The test can be described thus: co-IP; SK-Hep1 cells not treated with HGF; lysate in co-IP buffer (0.5% NP-40, 25 mM Tris-HCl, 150 mM NaCl, 2 mM EDTA); IP with anti-SAAL1 or anti-Met antibody and protein G magnetic beads; Western blot.
The target is the same in test [4]. Put plainly: co-IP; SK-Hep1 cells serum-starved 16 h, stimulated with 50 ng/mL HGF for one hour; lysate in co-IP buffer (0.5% NP-40, 25 mM Tris-HCl, 150 mM NaCl, 2 mM EDTA); IP with anti-SAAL1 or anti-Met antibody and protein G magnetic beads; Western blot.

These are yes or no findings as the source states them, for the method shown. In cells and extracts the contact can be indirect.

For the molecule “Met (from UniProt P08581 25-1390) (receptor)”, the binding entry in test [1] and in test [2] was “no binding” in each case.

B1: Serum amyloid A-like 1 (SAAL1) (protein, UniProt Q96ER3 1-474)
chain: T1 sequence
For the molecule B1, the binding result in test [3] and in test [4] was “no binding” throughout.
